# In PubChem BioAssay AID1487 (National Center for Advancing Translational Sciences (NCATS), 2009):
# The other results are listed elsewhere or left out. The main result of the screen is listed elsewhere. These columns were measured beside it and carry no call. The list favours compounds with an active or inconclusive main result. Potencies come from curve fits of mixed quality, noted in brackets.
# Assay: qHTS Assay for Modulators of Lamin A Splicing
# Settings: HeLa LMNA splicing GFP/RFP minigene ratio, 48 h
# Summary of the method: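 S3 HeLa stable clones carrying a lamin A-EGFP splicing minigene plus DsRed2 were seeded at 600 cells/well in Opti-MEM with 2% FBS, pin-dosed and incubated 48 h at 37°C. Acumen cytometry (488 nm) gave the GFP/RFP total-intensity ratio.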
# [1] = measured here: RFP viability control channel
# [2] = measured here: GFP splicing reporter channel
Structure (SMILES),AC50 [1],AC50 [2]
O=C1CCCc2c1cc(-c1ccccc1)n2-c1ccccc1,"12.6 µM [rising, partial curve]",–
COc1nc(-c2ccccc2)ccc1-c1noc(COc2ccccc2)n1,"22.4 µM [rising, single point]","6.31 µM [rising, partial curve]"
O=C(c1ccccc1)N1CCN(S(=O)(=O)N2CCOCC2)CC1,"3.16 µM [falling, partial curve, poor fit]","2.82 µM [falling, partial curve]"
O=C(O)[C@@H](O)[C@@H](O)[C@H](O)[C@H](O)CO,"35.5 µM [falling, single point]",–
CCn1nc([N+](=O)[O-])c(C(C#N)c2nc3ccccc3n2C)c(Cl)c1=O (centres undefined),"14.1 µM [rising, partial curve, poor fit]",–
COc1ccccc1-c1cc(C(F)(F)F)nc(NCc2cccs2)n1,"35.5 µM [rising, single point]","15.8 µM [rising, single point]"
Cc1cc(C)cc(NC(=O)c2cc3c(=O)n(Cc4ccco4)ccc3nc2C)c1,"11.2 µM [rising, partial curve]","12.6 µM [rising, partial curve]"
CNc1c([N+](=O)[O-])cnn1-c1ccccc1F,–,"5.62 µM [falling, single point]"
N#Cc1c(NC(=O)c2cccnc2)sc2c1CCC2,"15.8 µM [rising, partial curve]",–
CCOC(=O)C(C)Sc1ncnc2c1nnn2-c1ccc(F)cc1 (centres undefined),"12.6 µM [rising, single point]",–
COc1ccc2c(CC(=O)Nc3ncc(C)s3)coc2c1,"22.4 µM [falling, single point]",–
CCOc1ccc(CNC23CN4CN(CN(C4)C2)C3)cc1,"0.0224 µM [falling, full curve, poor fit]",–
O=C(c1ccccn1)N1N=C2/C(=C/c3ccccc3)CCCC2C1c1ccccc1 (centres undefined),"14.1 µM [rising, single point]",–
Cc1nc(NC(=O)/C=C/c2ccccc2)n[nH]1,"11.2 µM [rising, partial curve]",–
COc1ccc(-c2nc(CN3CCCCC3c3cccnc3)c(C)o2)c(F)c1 (centres undefined),–,"31.6 µM [falling, partial curve, poor fit]"
CN(C)c1ccc(-c2nc(NCCc3cnc[nH]3)c3ccccc3n2)cc1,"20 µM [falling, single point]","20 µM [falling, partial curve, poor fit]"
O=c1c(O)c(-c2ccc(O)cc2)oc2cc(O)cc(O)c12,"3.55 µM [falling, partial curve, poor fit]","4.47 µM [falling, partial curve, poor fit]"
O=C1CCCc2c1cc(C(=O)O)c(=O)n2-c1ccccc1,–,"0.251 µM [falling, full curve, poor fit]"
COc1ccccc1CNc1ncncc1-c1ccoc1,–,"25.1 µM [falling, partial curve, poor fit]"

Structure (SMILES),AC50 [1],AC50 [2]
CCOc1ccc2nc(N3CCC(C(=O)N4CCN(C5CCCCC5)CC4)CC3)sc2c1,"2.24 µM [rising, partial curve]",–
O=C(c1cnc(N2CCCCC2)c2ccccc12)N1CCN(c2ccc(F)cc2)CC1,–,"1.41 µM [falling, partial curve, poor fit]"
Cc1cnc(CNc2ccnc(-c3c(C)noc3C)n2)cn1,–,"0.251 µM [falling, full curve, poor fit]"
CN(C)c1ccc(-c2ccc3ncnc(NC4CC4)c3c2)cc1,"1.41 µM [falling, partial curve]","2.24 µM [falling, partial curve]"
Cc1nc2ccc(NC(=O)c3nn(CC(C)C)c(=O)c4ccccc34)cc2s1,"3.98 µM [falling, single point]","3.98 µM [falling, single point]"
CCOc1ccccc1CNC(=O)c1cc2oc3ccccc3c2n1CC,"11.2 µM [rising, partial curve]",–
Cc1ccn2c(-c3csc(NCc4ccccc4)n3)c(C)nc2c1,"25.1 µM [rising, partial curve]","35.5 µM [rising, single point]"
Cc1ccc(-c2csc(NC(=O)CSc3nnc4c(n3)[nH]c3ccccc34)n2)cc1,"5.62 µM [rising, full curve, poor fit]",–
Cc1ccsc1/C=N/N=C1\C(=O)Nc2ccccc21,"17.8 µM [rising, single point]",–
Cc1cc(C)c(C#N)c(SCc2c(F)cccc2[N+](=O)[O-])n1,"35.5 µM [rising, single point]",–
Cc1ccc(-c2nc3scc(CCNS(=O)(=O)c4c(C)noc4C)n3n2)cc1,–,"1.41 µM [falling, full curve, poor fit]"
CC(=O)c1c(C)[nH]c(C(=O)CSc2nc3ccccc3n2C)c1C,"4.47 µM [rising, full curve]","5.01 µM [rising, full curve]"
Cc1ccc([N+](=O)[O-])cc1N/C=C/C(=O)c1ccco1,"35.5 µM [falling, single point]","35.5 µM [falling, single point]"
COc1ccccc1Nc1cc(C)nc2c(C)ccc([N+](=O)[O-])c12,"11.2 µM [rising, single point]",–
N#CC(C#N)=Cc1cc2ccccc2nc1N1CCCCC1,"5.62 µM [rising, partial curve, poor fit]","0.562 µM [rising, full curve, poor fit]"
CCN1C(=O)N(S(=O)(=O)c2ccc(C)cc2)[C@@H](c2ccccc2)C(C(=O)OC)=C1C,"0.0224 µM [falling, full curve, poor fit]",–
Cc1ccc(NCc2nnc(SCC(N)=O)o2)c(C)c1,"0.447 µM [rising, full curve, poor fit]",–
COc1cc2nc(N3CCN(C(=O)C4COc5ccccc5O4)CC3)nc(N)c2cc1OC (centres undefined),"12.6 µM [rising, partial curve]",–

# A draw from above in order of molecular weight, rising.
Structure (SMILES),AC50 [1],AC50 [2]
O=C(O)[C@@H](O)[C@@H](O)[C@H](O)[C@H](O)CO,"35.5 µM [falling, single point]",–
Cc1ccsc1/C=N/N=C1\C(=O)Nc2ccccc21,"17.8 µM [rising, single point]",–
Cc1ccc([N+](=O)[O-])cc1N/C=C/C(=O)c1ccco1,"35.5 µM [falling, single point]","35.5 µM [falling, single point]"
O=c1c(O)c(-c2ccc(O)cc2)oc2cc(O)cc(O)c12,"3.55 µM [falling, partial curve, poor fit]","4.47 µM [falling, partial curve, poor fit]"
O=C1CCCc2c1cc(-c1ccccc1)n2-c1ccccc1,"12.6 µM [rising, partial curve]",–
Cc1cnc(CNc2ccnc(-c3c(C)noc3C)n2)cn1,–,"0.251 µM [falling, full curve, poor fit]"
COc1ccc2c(CC(=O)Nc3ncc(C)s3)coc2c1,"22.4 µM [falling, single point]",–
Cc1ccn2c(-c3csc(NCc4ccccc4)n3)c(C)nc2c1,"25.1 µM [rising, partial curve]","35.5 µM [rising, single point]"
CCOC(=O)C(C)Sc1ncnc2c1nnn2-c1ccc(F)cc1 (centres undefined),"12.6 µM [rising, single point]",–
COc1nc(-c2ccccc2)ccc1-c1noc(COc2ccccc2)n1,"22.4 µM [rising, single point]","6.31 µM [rising, partial curve]"
O=C(c1ccccn1)N1N=C2/C(=C/c3ccccc3)CCCC2C1c1ccccc1 (centres undefined),"14.1 µM [rising, single point]",–
